This is one part of the list. Most entries show no effect beyond the scatter of the controls.
compound: CN[C@@H]1C[C@H]2O[C@@](C)([C@@H]1OC)n1c3ccccc3c3c4c(c5c6ccccc6n2c5c31)C(=O)NC4 [staurosporine]; experiment: log2 fold change of tryptic peptide abundance, ligand vs vehicle (limited proteolysis) (log2 ratio); higher = more trypsin-susceptible (destabilized); settings: ligand concentration: 20 uM; sample: mouse liver crude lysate; replicate design: treated separately

Chains of the proteins cited; added tags and fusions are not shown. Lines headed by an entry give the natural chain unless they say otherwise; changes in a name come on top.
UniProt Q8R2R3: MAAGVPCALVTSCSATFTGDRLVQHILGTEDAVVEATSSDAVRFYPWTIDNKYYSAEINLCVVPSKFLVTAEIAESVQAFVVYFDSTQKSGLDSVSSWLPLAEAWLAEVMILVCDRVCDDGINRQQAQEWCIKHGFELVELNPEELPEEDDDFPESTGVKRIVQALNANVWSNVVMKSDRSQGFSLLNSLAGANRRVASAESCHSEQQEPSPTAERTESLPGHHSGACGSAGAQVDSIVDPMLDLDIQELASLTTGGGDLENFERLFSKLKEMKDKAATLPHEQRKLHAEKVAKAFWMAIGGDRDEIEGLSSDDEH
UniProt Q8K3J1, whole entry: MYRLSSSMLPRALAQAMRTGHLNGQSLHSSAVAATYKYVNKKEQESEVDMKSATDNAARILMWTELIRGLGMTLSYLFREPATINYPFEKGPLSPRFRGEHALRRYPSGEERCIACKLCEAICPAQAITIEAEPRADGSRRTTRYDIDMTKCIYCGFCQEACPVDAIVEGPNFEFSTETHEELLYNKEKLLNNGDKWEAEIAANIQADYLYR
UniProt Q8K4F6: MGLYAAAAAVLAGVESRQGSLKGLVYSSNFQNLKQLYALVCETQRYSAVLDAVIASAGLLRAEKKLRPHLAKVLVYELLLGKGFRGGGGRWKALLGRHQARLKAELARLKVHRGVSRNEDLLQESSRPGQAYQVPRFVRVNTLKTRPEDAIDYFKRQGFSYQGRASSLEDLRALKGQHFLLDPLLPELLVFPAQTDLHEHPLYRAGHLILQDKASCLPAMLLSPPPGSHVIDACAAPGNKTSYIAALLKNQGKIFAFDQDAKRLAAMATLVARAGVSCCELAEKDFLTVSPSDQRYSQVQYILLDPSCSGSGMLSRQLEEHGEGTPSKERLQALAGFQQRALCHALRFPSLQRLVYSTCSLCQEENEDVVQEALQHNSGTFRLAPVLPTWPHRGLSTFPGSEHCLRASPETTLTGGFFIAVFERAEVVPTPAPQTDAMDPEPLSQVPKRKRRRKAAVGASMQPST
UniProt Q8QZX2: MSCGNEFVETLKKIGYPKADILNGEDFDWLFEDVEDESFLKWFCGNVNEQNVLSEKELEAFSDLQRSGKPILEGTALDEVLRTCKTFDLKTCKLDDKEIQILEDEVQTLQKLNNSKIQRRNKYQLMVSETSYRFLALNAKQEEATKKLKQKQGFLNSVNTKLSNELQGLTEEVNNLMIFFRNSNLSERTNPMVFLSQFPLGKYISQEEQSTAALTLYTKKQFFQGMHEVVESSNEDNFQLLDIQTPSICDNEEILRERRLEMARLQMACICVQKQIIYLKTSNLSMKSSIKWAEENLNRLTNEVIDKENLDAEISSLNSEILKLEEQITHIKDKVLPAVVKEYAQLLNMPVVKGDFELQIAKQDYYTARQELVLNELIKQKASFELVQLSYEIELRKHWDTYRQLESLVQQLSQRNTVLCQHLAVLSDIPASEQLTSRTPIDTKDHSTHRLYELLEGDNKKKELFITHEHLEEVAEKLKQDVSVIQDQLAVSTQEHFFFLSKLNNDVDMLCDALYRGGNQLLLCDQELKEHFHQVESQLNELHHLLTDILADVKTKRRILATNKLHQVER
UniProt Q8K274: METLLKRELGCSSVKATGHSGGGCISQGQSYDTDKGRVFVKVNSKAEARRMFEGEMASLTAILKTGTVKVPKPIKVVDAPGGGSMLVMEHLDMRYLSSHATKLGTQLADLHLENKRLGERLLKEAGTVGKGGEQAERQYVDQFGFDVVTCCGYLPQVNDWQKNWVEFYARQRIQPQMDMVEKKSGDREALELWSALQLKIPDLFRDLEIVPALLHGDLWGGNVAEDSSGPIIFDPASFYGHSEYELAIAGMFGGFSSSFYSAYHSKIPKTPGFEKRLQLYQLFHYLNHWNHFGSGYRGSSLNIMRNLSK
UniProt Q8R0Z5: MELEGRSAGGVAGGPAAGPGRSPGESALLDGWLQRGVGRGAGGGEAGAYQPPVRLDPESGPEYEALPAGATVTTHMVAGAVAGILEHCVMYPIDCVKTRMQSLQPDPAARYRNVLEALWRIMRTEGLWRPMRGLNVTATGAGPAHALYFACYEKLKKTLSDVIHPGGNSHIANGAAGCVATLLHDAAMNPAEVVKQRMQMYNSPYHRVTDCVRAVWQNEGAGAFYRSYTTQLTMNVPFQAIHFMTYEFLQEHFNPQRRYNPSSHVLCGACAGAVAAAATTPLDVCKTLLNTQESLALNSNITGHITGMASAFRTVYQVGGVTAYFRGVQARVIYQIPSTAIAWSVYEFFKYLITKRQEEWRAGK
UniProt Q8R2L5: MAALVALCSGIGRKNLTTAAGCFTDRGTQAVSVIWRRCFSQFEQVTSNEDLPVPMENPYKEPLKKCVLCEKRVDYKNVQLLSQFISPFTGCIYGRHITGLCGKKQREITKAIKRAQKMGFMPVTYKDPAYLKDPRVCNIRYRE
UniProt Q8K441: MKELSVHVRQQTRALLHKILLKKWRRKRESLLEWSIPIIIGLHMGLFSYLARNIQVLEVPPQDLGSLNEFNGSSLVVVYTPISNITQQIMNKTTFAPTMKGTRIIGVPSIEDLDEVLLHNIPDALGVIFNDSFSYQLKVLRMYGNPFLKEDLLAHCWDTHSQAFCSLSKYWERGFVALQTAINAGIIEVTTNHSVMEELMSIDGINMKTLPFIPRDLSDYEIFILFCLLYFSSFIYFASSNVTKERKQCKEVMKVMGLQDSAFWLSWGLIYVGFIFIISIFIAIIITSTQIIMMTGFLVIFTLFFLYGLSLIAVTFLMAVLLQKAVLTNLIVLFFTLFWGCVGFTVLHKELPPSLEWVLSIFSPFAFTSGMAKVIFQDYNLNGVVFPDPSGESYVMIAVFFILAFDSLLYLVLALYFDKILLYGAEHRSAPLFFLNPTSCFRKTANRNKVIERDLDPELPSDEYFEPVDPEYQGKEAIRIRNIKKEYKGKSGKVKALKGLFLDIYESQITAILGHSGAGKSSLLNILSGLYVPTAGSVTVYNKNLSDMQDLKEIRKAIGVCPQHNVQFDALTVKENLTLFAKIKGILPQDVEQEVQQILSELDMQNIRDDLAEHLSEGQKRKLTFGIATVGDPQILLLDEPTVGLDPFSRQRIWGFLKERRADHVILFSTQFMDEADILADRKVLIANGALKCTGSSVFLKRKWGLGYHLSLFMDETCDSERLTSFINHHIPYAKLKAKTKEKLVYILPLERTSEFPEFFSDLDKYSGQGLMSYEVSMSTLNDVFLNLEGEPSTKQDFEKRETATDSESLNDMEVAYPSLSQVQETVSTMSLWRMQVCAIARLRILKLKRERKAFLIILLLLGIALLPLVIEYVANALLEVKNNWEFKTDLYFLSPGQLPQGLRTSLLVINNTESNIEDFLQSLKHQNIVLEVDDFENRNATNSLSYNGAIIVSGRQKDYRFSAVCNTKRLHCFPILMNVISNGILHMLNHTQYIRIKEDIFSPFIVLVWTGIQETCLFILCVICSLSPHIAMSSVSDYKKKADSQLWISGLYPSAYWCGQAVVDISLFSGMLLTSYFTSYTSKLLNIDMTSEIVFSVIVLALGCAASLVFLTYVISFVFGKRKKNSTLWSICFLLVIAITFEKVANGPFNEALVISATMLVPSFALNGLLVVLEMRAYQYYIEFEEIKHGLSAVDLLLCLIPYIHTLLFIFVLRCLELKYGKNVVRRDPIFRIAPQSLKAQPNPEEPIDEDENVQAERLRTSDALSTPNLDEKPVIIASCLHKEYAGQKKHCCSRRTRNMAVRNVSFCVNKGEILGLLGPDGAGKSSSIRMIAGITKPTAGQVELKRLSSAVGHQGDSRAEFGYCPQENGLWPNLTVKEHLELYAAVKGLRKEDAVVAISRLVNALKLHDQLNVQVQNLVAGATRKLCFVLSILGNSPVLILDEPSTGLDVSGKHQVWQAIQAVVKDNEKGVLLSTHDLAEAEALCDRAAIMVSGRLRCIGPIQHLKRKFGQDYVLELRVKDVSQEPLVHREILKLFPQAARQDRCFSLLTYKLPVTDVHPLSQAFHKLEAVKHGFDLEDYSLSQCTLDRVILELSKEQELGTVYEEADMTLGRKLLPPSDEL
UniProt Q8K5B2: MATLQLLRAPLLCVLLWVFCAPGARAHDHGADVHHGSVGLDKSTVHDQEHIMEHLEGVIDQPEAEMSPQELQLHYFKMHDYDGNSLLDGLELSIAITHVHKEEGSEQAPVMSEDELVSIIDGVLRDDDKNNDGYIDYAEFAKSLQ
UniProt Q8K245: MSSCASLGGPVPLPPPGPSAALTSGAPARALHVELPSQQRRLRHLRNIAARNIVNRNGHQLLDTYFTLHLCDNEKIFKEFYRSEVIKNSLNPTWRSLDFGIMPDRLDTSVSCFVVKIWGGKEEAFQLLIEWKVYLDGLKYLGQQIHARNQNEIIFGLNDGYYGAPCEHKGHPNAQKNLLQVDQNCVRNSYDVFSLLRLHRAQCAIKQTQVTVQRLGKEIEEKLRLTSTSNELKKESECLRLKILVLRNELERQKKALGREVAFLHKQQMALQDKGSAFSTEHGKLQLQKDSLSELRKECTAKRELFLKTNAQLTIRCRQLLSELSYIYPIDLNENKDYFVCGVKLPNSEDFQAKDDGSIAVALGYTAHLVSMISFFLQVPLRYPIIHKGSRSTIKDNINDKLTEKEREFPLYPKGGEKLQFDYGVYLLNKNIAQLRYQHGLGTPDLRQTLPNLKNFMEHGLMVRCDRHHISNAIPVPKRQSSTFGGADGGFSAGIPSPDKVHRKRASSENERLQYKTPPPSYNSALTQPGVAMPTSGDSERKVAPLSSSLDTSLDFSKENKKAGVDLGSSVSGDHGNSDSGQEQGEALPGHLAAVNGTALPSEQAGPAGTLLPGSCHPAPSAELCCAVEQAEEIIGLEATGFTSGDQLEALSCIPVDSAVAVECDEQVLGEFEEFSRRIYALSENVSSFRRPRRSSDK
UniProt Q8R088: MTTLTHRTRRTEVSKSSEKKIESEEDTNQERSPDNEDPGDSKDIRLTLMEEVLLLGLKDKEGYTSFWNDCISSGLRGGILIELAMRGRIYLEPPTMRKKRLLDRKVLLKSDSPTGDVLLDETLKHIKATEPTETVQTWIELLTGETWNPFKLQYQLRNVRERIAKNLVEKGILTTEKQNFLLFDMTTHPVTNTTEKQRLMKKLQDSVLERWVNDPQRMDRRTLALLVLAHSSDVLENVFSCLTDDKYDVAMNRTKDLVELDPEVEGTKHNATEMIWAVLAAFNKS
UniProt Q8K4T3: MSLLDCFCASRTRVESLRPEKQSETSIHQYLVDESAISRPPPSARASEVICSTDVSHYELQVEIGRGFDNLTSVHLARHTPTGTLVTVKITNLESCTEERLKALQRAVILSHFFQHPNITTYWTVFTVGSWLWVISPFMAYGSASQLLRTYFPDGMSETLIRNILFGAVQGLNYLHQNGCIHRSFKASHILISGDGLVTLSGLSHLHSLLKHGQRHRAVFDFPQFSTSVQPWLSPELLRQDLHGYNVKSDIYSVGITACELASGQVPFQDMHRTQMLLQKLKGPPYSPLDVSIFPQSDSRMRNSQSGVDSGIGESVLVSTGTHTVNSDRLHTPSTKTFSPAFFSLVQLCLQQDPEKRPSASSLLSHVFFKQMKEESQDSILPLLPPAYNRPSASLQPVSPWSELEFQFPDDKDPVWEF
UniProt Q8K224: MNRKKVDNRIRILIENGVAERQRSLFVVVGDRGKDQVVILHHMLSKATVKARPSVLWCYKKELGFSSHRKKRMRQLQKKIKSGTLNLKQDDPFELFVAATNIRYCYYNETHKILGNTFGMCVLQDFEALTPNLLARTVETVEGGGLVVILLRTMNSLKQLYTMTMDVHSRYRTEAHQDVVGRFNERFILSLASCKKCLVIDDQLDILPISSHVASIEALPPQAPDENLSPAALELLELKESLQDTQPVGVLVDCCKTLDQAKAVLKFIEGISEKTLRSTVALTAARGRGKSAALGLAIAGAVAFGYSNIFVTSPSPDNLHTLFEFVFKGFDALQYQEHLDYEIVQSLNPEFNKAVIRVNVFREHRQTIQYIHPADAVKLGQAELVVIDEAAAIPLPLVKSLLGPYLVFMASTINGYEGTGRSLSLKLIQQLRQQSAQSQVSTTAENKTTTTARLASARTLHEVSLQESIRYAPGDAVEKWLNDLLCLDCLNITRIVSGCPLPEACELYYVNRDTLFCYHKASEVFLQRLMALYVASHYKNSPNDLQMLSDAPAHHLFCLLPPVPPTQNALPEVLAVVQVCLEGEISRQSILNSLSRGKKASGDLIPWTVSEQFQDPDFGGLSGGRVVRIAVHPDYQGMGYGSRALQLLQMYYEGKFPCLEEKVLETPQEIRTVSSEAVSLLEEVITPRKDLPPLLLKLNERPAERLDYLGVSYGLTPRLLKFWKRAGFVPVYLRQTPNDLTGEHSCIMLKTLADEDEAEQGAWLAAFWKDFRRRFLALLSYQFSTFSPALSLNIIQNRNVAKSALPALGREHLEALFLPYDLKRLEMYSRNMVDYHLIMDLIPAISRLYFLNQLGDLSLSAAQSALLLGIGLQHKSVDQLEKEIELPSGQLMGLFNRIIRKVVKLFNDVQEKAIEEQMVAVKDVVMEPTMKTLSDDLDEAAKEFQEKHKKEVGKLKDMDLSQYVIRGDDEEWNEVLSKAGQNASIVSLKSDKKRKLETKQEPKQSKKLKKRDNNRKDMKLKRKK

| Target | log2 fold change |
| --- | --- |
| UniProt Q8R2R3 (peptide sequence: DKAATLPHEQR, peptide start residue: 275) | -0.139 |
| UniProt Q8K1I7 (peptide sequence: SGPLPPPPSERPPPPVRDPPGR, peptide start residue: 344) | -0.354 |
| UniProt Q8K4I3 (peptide sequence: EIKPSERPLSPK, peptide start residue: 215) | 0.247 |
| UniProt Q8R121 (peptide sequence: KMEVFFPK, peptide start residue: 336) | -0.161 |
| UniProt Q8K2T1 (peptide sequence: KLVVVFGATGAQGGSVAR, peptide start residue: 5) | 0.398 |
| UniProt Q8K3J1 (peptide sequence: FRGEHALR, peptide start residue: 97) | -0.264 |
| UniProt Q8K4F6 (peptide sequence: KLRPHLAK, peptide start residue: 65) | 0.553 |
| UniProt Q8R050 (peptide sequence: SVDGPIRLPIVDKYK, peptide start residue: 434) | -0.405 |
| UniProt Q8QZX2 (peptide sequence: KHWDTYR, peptide start residue: 397) | -0.153 |
| UniProt Q8K274 (peptide sequence: GSSLNIMR, peptide start residue: 298) | -0.175 |
| UniProt Q8R0Z5 (peptide sequence: SAGGVAGGPAAGPGR, peptide start residue: 7) | 0.16 |
| UniProt Q8R0G7 (peptide sequence: AQLHVQGLLHESGPSDDR, peptide start residue: 492) | 0.234 |
| UniProt Q8K201 (peptide sequence: GFQDSVEVVK, peptide start residue: 173) | -0.0253 |
| UniProt Q8R1Q9 (peptide sequence: HIPTEAVK, peptide start residue: 254) | -0.23 |
| UniProt Q8K135 (peptide sequence: ILDATDQESLELKPTSR, peptide start residue: 969) | -0.0449 |
| UniProt Q8N7N6 (peptide sequence: IRGIDIIK, peptide start residue: 428) | -0.0982 |
| UniProt Q8R2L5 (peptide sequence: CVLCEKR, peptide start residue: 66) | 0.363 |
| UniProt Q8K441 (peptide sequence: GLRKEDAVVAISR, peptide start residue: 1390) | -0.337 |
| UniProt Q8K3W0 (peptide sequence: VGLDATNCLR, peptide start residue: 27) | -0.159 |
| UniProt Q8K5B2 (peptide sequence: DDDKNNDGYIDYAEFAK, peptide start residue: 126) | -0.0835 |
| UniProt Q8K245 (peptide sequence: QSSTFGGADGGFSAGIPSPDKVHR, peptide start residue: 480) | 0.216 |
| UniProt Q8R088 (peptide sequence: IYLEPPTMR, peptide start residue: 89) | -0.239 |
| UniProt Q8K4T3 (peptide sequence: HTPTGTLVTVK, peptide start residue: 79) | 0.149 |
| UniProt Q8K224 (peptide sequence: TEAHQDVVGR, peptide start residue: 173) | -0.35 |
| UniProt Q8K4M5 (peptide sequence: LSEVEESINR, peptide start residue: 174) | -0.16 |
| UniProt Q8K1A5 (peptide sequence: VADRSPTEMLHSTPAGDR, peptide start residue: 6) | 0.0583 |

Looked up above.
log2 fold change with UniProt Q8K201 (peptide sequence: GFQDSVEVVK, peptide start residue: 173) reads -0.0253
log2 fold change with UniProt Q8K224 (peptide sequence: TEAHQDVVGR, peptide start residue: 173) reads -0.35

Source: the supplement of paper PMC12819154, “High-throughput peptide-centric local stability assay extends protein–ligand identification to membrane proteins, tissues and bacteria” (Nature Structural & Molecular Biology, 2025)
